Laboratory results from patent US20180362616A1, “VARIANTS OF AMYLOID beta-PROTEIN PRECURSOR INHIBITOR DOMAIN” (THE NATIONAL INSTITUTE FOR BIOTECHNOLOGY IN THE NEGEV LTD., priority 2015, published 2018).
Not every detail of the peptide structures is certain; ends, links or a residue may be inferred. Bridges are numbered along the chain shown (N, C = ends). Where no end group is shown, it is not given here.

Molecular target: T1, mesotrypsin (Homo sapiens, UniProt P35030)
T1 sequence (P35030 81-304 limits assumed): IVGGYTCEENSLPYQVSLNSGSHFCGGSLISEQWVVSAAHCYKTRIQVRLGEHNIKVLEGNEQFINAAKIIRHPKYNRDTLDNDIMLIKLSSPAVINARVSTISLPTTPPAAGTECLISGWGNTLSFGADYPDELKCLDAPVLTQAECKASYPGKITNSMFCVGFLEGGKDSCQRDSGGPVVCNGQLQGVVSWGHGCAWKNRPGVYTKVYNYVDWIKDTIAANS
Assay: Hydrolysis of APPI variants by mesotrypsin, HPLC time course
Assay type: biochemical
Design: made in house

Q: Which Turnover time (Table 4) does the source give for “EVCSEQAEVGPCRAGFSRWYFDVTEGKCAPFVYGGCGGNRNNFDTEEYCMAVCGSAI (disulfide 3-53, 12-36, 28-49) [APPIT11V/M17G/I18F/F34V]” here?
A: The Turnover time was 2880.96 s.

Q: And the “Turnover time (fold)” value (proteolytic stability relative to APPI-WT)?
A: Its value is “around 100 fold”.
